In paper PMC11538862:
No constants are given. Whether binding was seen depends on the method and setting. In cells and extracts the contact can be indirect. Some binding calls cover weakened binding; strength is not graded here.

By UniProt entry, the sequences of proteins in these tests, tags left out.
UniProt Q15365: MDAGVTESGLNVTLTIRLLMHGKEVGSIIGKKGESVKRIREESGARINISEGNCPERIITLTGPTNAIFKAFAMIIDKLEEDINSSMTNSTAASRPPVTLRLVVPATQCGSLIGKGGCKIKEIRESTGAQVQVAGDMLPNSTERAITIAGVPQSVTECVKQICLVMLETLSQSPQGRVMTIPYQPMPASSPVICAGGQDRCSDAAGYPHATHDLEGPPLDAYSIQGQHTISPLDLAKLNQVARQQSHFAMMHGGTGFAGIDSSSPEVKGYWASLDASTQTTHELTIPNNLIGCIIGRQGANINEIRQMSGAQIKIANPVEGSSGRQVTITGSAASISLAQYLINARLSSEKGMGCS

Target: polycytosine (poly(C)) binding protein 1 (PCBP1) (human (endogenous in A549 and HeLa)) (UniProt Q15365)
Assay: co-IP; anti-PCBP1 antibody on protein A Sepharose, endogenous proteins of A549 and HeLa lysates, immunoblot; HeLa lysates also treated with RNAse A, DNAse I or both

B1: DDX21, human (protein, UniProt Q9NR30 1-783)
chain: MPGKLRSDAGLESDTAMKKGETLRKQTEEKEKKEKPKSDKTEEIAEEEETVFPKAKQVKKKAEPSEVDMNSPKSKKAKKKEEPSQNDISPKTKSLRKKKEPIEKKVVSSKTKKVTKNEEPSEEEIDAPKPKKMKKEKEMNGETREKSPKLKNGFPHPEPDCNPSEAASEESNSEIEQEIPVEQKEGAFSNFPISEETIKLLKGRGVTFLFPIQAKTFHHVYSGKDLIAQARTGTGKTFSFAIPLIEKLHGELQDRKRGRAPQVLVLAPTRELANQVSKDFSDITKKLSVACFYGGTPYGGQFERMRNGIDILVGTPGRIKDHIQNGKLDLTKLKHVVLDEVDQMLDMGFADQVEEILSVAYKKDSEDNPQTLLFSATCPHWVFNVAKKYMKSTYEQVDLIGKKTQKTAITVEHLAIKCHWTQRAAVIGDVIRVYSGHQGRTIIFCETKKEAQELSQNSAIKQDAQSLHGDIPQKQREITLKGFRNGSFGVLVATNVAARGLDIPEVDLVIQSSPPKDVESYIHRSGRTGRAGRTGVCICFYQHKEEYQLVQVEQKAGIKFKRIGVPSATEIIKASSKDAIRLLDSVPPTAISHFKQSAEKLIEEKGAVEALAAALAHISGATSVDQRSLINSNVGFVTMILQCSIEMPNISYAWKELKEQLGEEIDSKVKGMVFLKGKLGVCFDVPTASVTEIQEKWHDSRRWQLSVATEQPELEGPREGYGGFRGQREGSRGFRGQRDGNRRFRGQREGSRGPRGQRSGGGNKSNRSQNKGQKRSFSKAFGQ
  binding: binds
